Results are given in words; binding and its absence hold for the method and conditions named. Binding seen in cells or lysates may run through a third protein. Some results given as binding are weak or reduced against the parent protein; the word gives no strength. Where a sequence is shown, tags or fusion partners need not be part of it.

Protein sequences, listed by entry. Tags and fused reporters are not part of them.
UniProt P61006: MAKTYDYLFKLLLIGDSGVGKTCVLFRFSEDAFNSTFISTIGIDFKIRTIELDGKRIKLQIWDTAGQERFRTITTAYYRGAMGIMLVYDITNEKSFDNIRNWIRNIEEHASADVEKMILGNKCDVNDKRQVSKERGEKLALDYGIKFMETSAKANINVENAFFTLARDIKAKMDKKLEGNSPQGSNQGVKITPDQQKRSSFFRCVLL

The target in this assay is T1, GFP-Rabin8 (human) (UniProt Q96QF0).
T1 sequence: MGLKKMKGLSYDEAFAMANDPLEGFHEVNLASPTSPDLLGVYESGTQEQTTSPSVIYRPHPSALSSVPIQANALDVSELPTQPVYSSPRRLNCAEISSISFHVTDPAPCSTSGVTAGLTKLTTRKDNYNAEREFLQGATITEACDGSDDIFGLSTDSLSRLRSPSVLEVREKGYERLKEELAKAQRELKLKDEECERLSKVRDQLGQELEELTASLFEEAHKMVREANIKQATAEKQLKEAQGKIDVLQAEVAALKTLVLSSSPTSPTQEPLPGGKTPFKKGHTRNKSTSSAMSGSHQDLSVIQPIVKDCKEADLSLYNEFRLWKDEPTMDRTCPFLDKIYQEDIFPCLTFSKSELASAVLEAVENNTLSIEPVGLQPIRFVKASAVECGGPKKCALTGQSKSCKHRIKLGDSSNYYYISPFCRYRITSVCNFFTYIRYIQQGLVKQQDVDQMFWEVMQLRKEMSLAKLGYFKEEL
Put plainly: co-IP; HEK293T co-transfected with GFP-Rabin8 and flag-tagged Rab8a constructs; lysis in 50 mM Tris-HCl pH 7.6, 150 mM NaCl, 2 mM MgCl2, 1% Triton-X100, 1 mM DTT; 1 mg lysate immunoprecipitated with anti-GFP and protein G Sepharose at 4 °C; Western blot with anti-flag. (Immunoblotting shows a protein as a band on a membrane.)

As for “3xFlag-Rab8a wildtype (from UniProt P61006 1-207)”, the binding result is given as “binds”.
